The record followed here is paper PMC8983766.

Sequences of proteins named here, by UniProt entry; tags and fusion partners are left off. A change or cut given only in a name is not applied to a line headed by its entry.
UniProt O43474, whole entry: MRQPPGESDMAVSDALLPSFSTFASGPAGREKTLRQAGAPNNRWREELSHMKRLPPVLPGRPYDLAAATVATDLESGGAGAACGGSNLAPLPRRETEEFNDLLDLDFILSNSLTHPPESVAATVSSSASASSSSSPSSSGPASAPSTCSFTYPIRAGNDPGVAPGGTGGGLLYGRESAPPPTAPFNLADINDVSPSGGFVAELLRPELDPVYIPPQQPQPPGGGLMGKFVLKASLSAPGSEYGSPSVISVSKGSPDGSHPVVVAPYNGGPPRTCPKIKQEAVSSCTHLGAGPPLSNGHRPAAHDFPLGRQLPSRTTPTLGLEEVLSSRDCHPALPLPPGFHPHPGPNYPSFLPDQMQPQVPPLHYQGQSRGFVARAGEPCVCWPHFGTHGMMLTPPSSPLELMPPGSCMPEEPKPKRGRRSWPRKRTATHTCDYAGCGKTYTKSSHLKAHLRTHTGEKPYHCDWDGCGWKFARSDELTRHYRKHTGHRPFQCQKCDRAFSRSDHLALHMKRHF

For the experiment, the target named is Hemagglutinin (HA)-tagged Krüppel-like factor 4 (KLF4) (UniProt O43474). Kind of experiment: co-IP; HEK293T cells transfected with HA-KLF4 or its deletion mutants; lysates incubated with anti-HA-agarose; Western blot for DUB3; RIPA buffer, 4 °C for 4 h. A general note: A western blot detects proteins with antibodies after separation by electrophoresis.

Results are given in words; binding and its absence hold for the method and conditions named. In cells and extracts the contact can be indirect. Some results given as binding are weak or reduced against the parent protein; the word gives no strength.

B1: deubiquitinating enzyme 3 (DUB3), endogenous in HEK293T cells (enzyme, UniProt Q6R6M4 1-530)
chain: MEDDSLYLGGEWQFNHFSKLTSSRPDAAFAEIQRTSLPEKSPLSSEARVDLCDDLAPVARQLAPRKKLPLSSRRPAAVGAGLQNMGNTCYENASLQCLTYTPPLANYMLSREHSQTCQRPKCCMLCTMQAHITWALHSPGHVIQPSQALAAGFHRGKQEDAHEFLMFTVDAMKKACLPGHKQVDHHSKDTTLIHQIFGGCWRSQIKCLHCHGISDTFDPYLDIALDIQAAQSVKQALEQLVKPEELNGENAYHCGLCLQRAPASKTLTLHTSAKVLILVLKRFSDVTGNKLAKNVQYPECLDMQPYMSQQNTGPLVYVLYAVLVHAGWSCHDGHYFSYVKAQEGQWYKMDDAKVTACSITSVLSQQAYVLFYIQKSEWERHSESVSRGREPRALGAEDTDRRATQGELKRDHPCLQAPELDERLVERATQESTLDHWKFPQEQNKTKPEFNVRKVEGTLPPNVLVIHQSKYKCGMKNHHPEQQSSLLNLSSTTRTDQESVNTGTLASLQGRTRRSKGKNKHSKRALLVCQ
Consider B1, for which the binding entry is recorded as “binds”.
